The results are deposited in PubChem (AID1159506; NCATS, 2015).

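Genome-wide siRNA knockdown in TC32 Ewing sarcoma cells, comparing luciferase light from an NR0B1-promoter reporter with a CMV-promoter reporter 48 hours after transfection. Each siRNA was applied at 20 nM. A z-score of the log NR0B1-over-CMV signal, less the median of siRNAs with the same seed; more negative means a stronger specific loss of the NR0B1 reporter.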

This is part of the screen; most of the strongest results are not listed here. Sequences are the guide (antisense) strand, without overhang.

- UCUGUGGAUACCCAUUUGC against COL16A1 : seed-corrected z-score 0.6469
- UCAGGUACCAUUCGGAGGC against HPD : seed-corrected z-score 0.7032
- UGAUCUAUCCAUAGGCCUG against IFITM3 : seed-corrected z-score 0.325
- UACAGGAAGAGCAUGGGAU against C5AR2 : seed-corrected z-score -0.2649
- UUACGCAUAAGCCUGGCUC against SCRN2 : seed-corrected z-score -1.006
- UCCGAGUUAAGAUUCCCGC against CDH6 : seed-corrected z-score -0.03305
- UCAUAUCCCACCUUCGGGC against C15orf52 : seed-corrected z-score 0.8756
- UCCCGUAUCAUUUUGGUCC against PLA2R1 : seed-corrected z-score -0.1286
- UAUGGACUGAGUUCUCUUC against CDCA8 : seed-corrected z-score 0.4535
- UUCGGUUCCAUUUCAAGGC against TBL1X : seed-corrected z-score 0.6662
- AUCUUUUUGAUCAAUCUUG against PCYOX1L : seed-corrected z-score 0.2833
- UCGUCUUCCAGUCAUUCCC against TTF1 : seed-corrected z-score -0.8981
- AAAUGAGUCUUUAAGAUCC against PRY : seed-corrected z-score -0.6718
- AGAUUUUACAAAACUAUCC against NFIB : seed-corrected z-score 0.3506
- UUUUCCAGAUCAUCAAUGC against HSBP1 : seed-corrected z-score -1.126
- AAUAUCUUGAAGACGGUUC against RBM41 : seed-corrected z-score 0.1751
- UUCCAGGUAUCCAUAGUAU against LOC541473 : seed-corrected z-score -0.589
- UCAGUAGGAUGUACGGGUG against ZNF746 : seed-corrected z-score 0.357
- UAAACAUCCAAUAACUGUU against OR1I1 : seed-corrected z-score -0.641
- UAGAUGGUGUGCAUGAGGC against NKD2 : seed-corrected z-score 0.6442
- AGAACAAUCAGAUUCGACC against OR13C8 : seed-corrected z-score 0.146
- UAUACGUUUUUGAGAAUAC against PDE3A : seed-corrected z-score -0.0002566
- UUGAAUACCUCAUCCACGG against PLCL2 : seed-corrected z-score 1.504
- UCAGGAAAUAUGUCUCUGG against KRTAP9-1 : seed-corrected z-score 0.7778
- AGCGUGAAGAUGUUAAACC against KIR2DL4 : seed-corrected z-score 0.4138
- UAAUGCAGGAACGGACUCC against PTRH1 : seed-corrected z-score 0.09802
- UAAGAAUGAAUUUUCCUCU against WDR61 : seed-corrected z-score 0.4241
- UUGUCAACAUGCCUGUUAC against LOC728158 : seed-corrected z-score -0.007971
- UCCAUUAACAGAGAGGAGU against LIN7C : seed-corrected z-score -0.2319
- UGAAUGUGAAGUUGGUGCC against SUSD2 : seed-corrected z-score 0.2983
- UGGACUUCAAACUCUCUGC against KLHL29 : seed-corrected z-score 1.496
- UUAGUAAACUUGAUGACUU against NR1I3 : seed-corrected z-score -1.347
- AUUCGAACCAUGACCGUGC against PCDHB4 : seed-corrected z-score -0.1798
- UCCGUGGUAACGGUAAGUC against PDHA1 : seed-corrected z-score -0.8527
- UCGUGCUCCAUUUGAAUGG against SIGLEC11 : seed-corrected z-score 0.3608
- UAACUUCCAAUGCACCAGC against KCNJ2-AS1 : seed-corrected z-score -1.624
- UCAGAGCUCAUGUAAGCAU against C1QTNF9 : seed-corrected z-score -0.4059
- AAGUUGGUCACACUGAGCC against DAGLB : seed-corrected z-score -1.904
- UUUGGAUGAUCUUCAAGUG against MBTPS1 : seed-corrected z-score 0.09133
- UCAACAUCAGGUAAGGAGC against HERC4 : seed-corrected z-score -0.6425
- UUUUGUAGCUAUCAGUUGG against LOC643675 : seed-corrected z-score 0.8051
- UGACGUAAUGGAUACAGCC against ACACA : seed-corrected z-score 0.05537
- UUUGUGAUAUGAACCUUCC against ADCY1 : seed-corrected z-score 0.712
- UCAGGUAACAGACGUGACC against GBA3 : seed-corrected z-score -0.1499
- UUUCAUUAAGUCUAGGAUG against C9orf9 : seed-corrected z-score 1.156
- AUUUGUAACUUUAAUGUGC against NDUFB2 : seed-corrected z-score 0.6273
- UUCGUUGCAAAAGAUAUGC against SOS1 : seed-corrected z-score -0.09949
- UUAGUUCUCAUGGGUGUUG against TCEANC : seed-corrected z-score 0.291
- UUGUCGUGCAGGUUUCUGG against OPLAH : seed-corrected z-score -0.2177
- UUUGAUAUGUGAUCGGUUC against PIGW : seed-corrected z-score 0.0277
- AAAGUUGAGACCAUACACC against ENAH : seed-corrected z-score -0.7982

Some entries from above, unchanged:

Result for UUUGUGAUAUGAACCUUCC against ADCY1 was seed-corrected z-score 0.712.
Result for UUGAAUACCUCAUCCACGG against PLCL2 was seed-corrected z-score 1.504.
Result for UUACGCAUAAGCCUGGCUC against SCRN2 was seed-corrected z-score -1.006.